Assay results published in PMC9981704, “PARP1 allows proper telomere replication through TRF1 poly (ADP-ribosyl)ation and helicase recruitment”.
Construct, isoform or probe ends are uncertain for at least one entry. A weaker result is weaker than the reference pair of the same experiment.

By UniProt entry, the sequences of proteins in these tests, tags left out. Where a name states a change or a piece, a line headed by the entry shows the natural chain unless it says otherwise.
UniProt P54274: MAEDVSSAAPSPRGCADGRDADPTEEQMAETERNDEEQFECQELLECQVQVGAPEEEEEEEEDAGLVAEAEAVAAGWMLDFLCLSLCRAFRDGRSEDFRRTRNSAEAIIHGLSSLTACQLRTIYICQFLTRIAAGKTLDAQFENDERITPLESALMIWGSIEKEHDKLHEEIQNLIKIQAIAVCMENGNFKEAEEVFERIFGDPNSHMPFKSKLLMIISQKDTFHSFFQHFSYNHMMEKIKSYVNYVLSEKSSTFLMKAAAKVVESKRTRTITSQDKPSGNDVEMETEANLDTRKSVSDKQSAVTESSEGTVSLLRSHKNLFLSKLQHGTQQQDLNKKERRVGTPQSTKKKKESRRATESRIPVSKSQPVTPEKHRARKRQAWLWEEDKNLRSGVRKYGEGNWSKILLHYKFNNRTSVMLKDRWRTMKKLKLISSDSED

Target: TRF1 PARylated by PARP1 (human) (UniProt P54274)
Assay: EMSA
Conditions: TRF1 pre-PARylated by PARP1, binding massively reduced; 20 mM Hepes pH 7.9, 100 mM NaCl, 50 mM KCl, 1 mM MgCl2, 0.1 mM EDTA, 1 mM DTT, 5% glycerol, 0.5 mg/ml BSA, 0.1% NP-40; 4 °C, 90 min; native 4.5% PAGE; recombinant protein; residues 1-439; protein details: His (pTrc-HisB); label: 32P 5' end label (T4 PNK)

Sequence: GGGTTAGGGTTAGGGTTAGGGTTAGGGTTAGGGTTAGGGTTAGGGCCCCTC (double strand) [telomeric duplex DNA]
- binding result: binds more weakly
